2 substances from paper PMC6092437 can be followed below.

Sequences of proteins named here, by UniProt entry; tags and fusion partners are left off.
UniProt P48431: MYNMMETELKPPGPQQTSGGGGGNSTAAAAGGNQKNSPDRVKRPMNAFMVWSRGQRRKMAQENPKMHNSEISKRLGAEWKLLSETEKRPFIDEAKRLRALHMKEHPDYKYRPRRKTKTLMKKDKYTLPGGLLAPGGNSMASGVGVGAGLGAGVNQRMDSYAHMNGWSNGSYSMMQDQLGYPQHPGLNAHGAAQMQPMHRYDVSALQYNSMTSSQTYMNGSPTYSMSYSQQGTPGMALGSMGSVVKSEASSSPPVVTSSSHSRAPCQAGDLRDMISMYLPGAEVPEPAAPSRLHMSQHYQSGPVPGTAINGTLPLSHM
UniProt O43474: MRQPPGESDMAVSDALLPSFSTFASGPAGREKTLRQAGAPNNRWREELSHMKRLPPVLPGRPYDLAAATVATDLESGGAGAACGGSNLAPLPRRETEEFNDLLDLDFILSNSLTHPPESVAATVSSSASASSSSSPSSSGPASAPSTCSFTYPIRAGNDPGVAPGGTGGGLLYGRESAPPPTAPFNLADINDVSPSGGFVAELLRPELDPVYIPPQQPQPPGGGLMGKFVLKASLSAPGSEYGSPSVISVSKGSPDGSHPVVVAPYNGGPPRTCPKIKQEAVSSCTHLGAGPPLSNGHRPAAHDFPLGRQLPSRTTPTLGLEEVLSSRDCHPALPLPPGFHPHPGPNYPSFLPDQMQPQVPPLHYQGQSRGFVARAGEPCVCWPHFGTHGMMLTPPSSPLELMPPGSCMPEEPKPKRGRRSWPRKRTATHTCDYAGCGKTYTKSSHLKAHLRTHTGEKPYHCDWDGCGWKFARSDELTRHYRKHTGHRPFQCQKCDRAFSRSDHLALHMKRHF

These are yes or no findings as the source states them, for the method shown. Binding seen in cells or lysates may run through a third protein. Some results given as binding are weak or reduced against the parent protein; the word gives no strength.

For one assay, the target named is HA-tagged SOX2 (UniProt P48431). Put plainly: co-IP; 293T cells cotransfected with Flag-KLF4 and HA-SOX2 plasmids; cellular extracts subjected to IP and IB with the indicated antibodies.
Assay [1] concerns the target SOX2 (Sex determining region Y-box 2), endogenous (human (endogenous in CNE2 and HNE-1)) (UniProt P48431). Description: co-IP; cellular extracts of CNE2 and HNE-1 cells; IP with SOX2 antibody or control IgG and IB with KLF4 antibody; reciprocal IP with KLF4 antibody or control IgG and IB with SOX2 antibody.

As for Flag-KLF4 (from UniProt O43474 1-513), the binding entry with HA-tagged SOX2 is recorded as “binds”. For “Krüppel-like factor 4 (KLF4), endogenous (from UniProt O43474 1-513)”, the binding entry in assay [1] was “binds”.
